Measured values as given in article PMC10394025.
These are yes or no findings as the source states them, for the method shown. Binding seen in cells or lysates may run through a third protein. Some binding calls cover weakened binding; strength is not graded here. For some assays here: Where a sequence is shown, tags or fusion partners need not be part of it.

T1: USP15 (in vitro GST pulldown assay) (UniProt Q8R5H1)
T1 sequence: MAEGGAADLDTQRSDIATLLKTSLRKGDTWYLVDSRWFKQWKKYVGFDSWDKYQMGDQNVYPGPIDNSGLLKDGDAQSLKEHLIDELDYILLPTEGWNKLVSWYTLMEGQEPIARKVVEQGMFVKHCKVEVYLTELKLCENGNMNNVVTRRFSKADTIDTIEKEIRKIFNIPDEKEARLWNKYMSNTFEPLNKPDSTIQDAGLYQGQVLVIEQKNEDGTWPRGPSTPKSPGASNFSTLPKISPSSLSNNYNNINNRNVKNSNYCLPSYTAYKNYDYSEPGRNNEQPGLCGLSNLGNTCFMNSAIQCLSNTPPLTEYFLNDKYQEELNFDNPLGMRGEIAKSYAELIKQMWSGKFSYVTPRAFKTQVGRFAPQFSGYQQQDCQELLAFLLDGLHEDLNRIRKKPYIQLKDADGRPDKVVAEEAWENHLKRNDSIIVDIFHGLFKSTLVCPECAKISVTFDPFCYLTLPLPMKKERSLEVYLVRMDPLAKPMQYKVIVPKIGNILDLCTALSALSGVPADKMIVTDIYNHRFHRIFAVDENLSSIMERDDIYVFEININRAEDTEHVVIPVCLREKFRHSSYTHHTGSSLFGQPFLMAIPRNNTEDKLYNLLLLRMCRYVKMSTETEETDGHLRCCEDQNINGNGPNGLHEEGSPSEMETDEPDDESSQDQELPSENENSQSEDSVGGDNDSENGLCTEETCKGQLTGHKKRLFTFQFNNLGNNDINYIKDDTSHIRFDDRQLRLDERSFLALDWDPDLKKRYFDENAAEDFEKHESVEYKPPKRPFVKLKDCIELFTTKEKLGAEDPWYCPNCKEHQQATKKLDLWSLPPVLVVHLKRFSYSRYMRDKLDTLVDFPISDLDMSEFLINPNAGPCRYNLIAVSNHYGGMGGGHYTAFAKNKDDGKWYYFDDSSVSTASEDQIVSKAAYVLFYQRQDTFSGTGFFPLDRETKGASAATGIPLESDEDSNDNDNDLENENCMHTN

T2: USP15 (endogenous, AML12 cells) (mouse (endogenous in AML12)) (UniProt Q8R5H1)
T2 sequence: T1 sequence

T3: FLAG-USP15 (HEK293) (UniProt Q8R5H1)
T3 sequence: T1 sequence

B1: Perilipin1 (in vitro GST pulldown assay) (protein, UniProt Q8CGN5 1-517)
chain: MSMNKGPTLLDGDLPEQENVLQRVLQLPVVSGTCECFQKTYNSTKEAHPLVASVCNAYEKGVQGASNLAAWSMEPVVRRLSTQFTAANELACRGLDHLEEKIPALQYPPEKIASELKGTISTRLRSARNSISVPIASTSDKVLGATLAGCELALGMAKETAEYAANTRVGRLASGGADLALGSIEKVVEFLLPPDKESAPSSGRQRTQKAPKAKPSLVRRVSTLANTLSRHTMQTTAWALKQGHSLAMWIPGVAPLSSLAQWGASAAMQVVSRRQSEVRVPWLHNLAASQDESHDDQTDTEGEETDDEEEEEESEAEENVLREVTALPNPRGLLGGVVHTVQNTLRNTISAVTWAPAAVLGTVGRILHLTPAQAVSSTKGRAMSLSDALKGVTDNVVDTVVHYVPLPRLSLMEPESEFRDIDNPSAEAERKGSGARPASPESTPRPGQPRGSLRSVRGLSAPSCPGLDDKTEASARPGFLAMPREKPARRVSDSFFRPSVMEPILGRAQYSQLRKKS
B2: FABP1 (endogenous, AML12 cells) (protein, UniProt P12710 1-127)
chain: MNFSGKYQLQSQENFEPFMKAIGLPEDLIQKGKDIKGVSEIVHEGKKIKLTITYGPKVVRNEFTLGEECELETMTGEKVKAVVKLEGDNKMVTTFKGIKSVTELNGDTITNTMTLGDIVYKRVSKRI
B3: FABP4 (endogenous, AML12 cells) (protein, UniProt P04117 1-132)
chain: MCDAFVGTWKLVSSENFDDYMKEVGVGFATRKVAGMAKPNMIISVNGDLVTIRSESTFKNTEISFKLGVEFDEITADDRKVKSIITLDGGALVQVQKWDGKSTTIKRKRDGDKLVVECVMKGVTSTRVYERA
B4: Perilipin1 (endogenous, AML12 cells) (protein, UniProt Q8CGN5 1-517)
chain: B1 chain
B5: Perilipin2 (endogenous, AML12 cells) (protein, UniProt P43883 1-425)
chain: MAAAVVDPQQSVVMRVANLPLVSSTYDLVSSAYVSTKDQYPYLRSVCEMAEKGVKTVTSAAMTSALPIIQKLEPQIAVANTYACKGLDRMEERLPILNQPTSEIVASARGAVTGAKDVVTTTMAGAKDSVASTVSGVVDKTKGAVTGSVERTKSVVNGSINTVLGMVQFMNSGVDNAITKSELLVDQYFPLTQEELEMEAKKVEGFDMVQKPSNYERLESLSTKLCSRAYHQALSRVKEAKQKSQETISQLHSTVHLIEFARKNMHSANQKIQGAQDKLYVSWVEWKRSIGYDDTDESHCVEHIESRTLAIARNLTQQLQTTCQTVLVNAQGLPQNIQDQAKHLGVMAGDIYSVFRNAASFKEVSDGVLTSSKGQLQKMKESLDEVMDYFVNNTPLNWLVGPFYPQSTEVNKASLKVQQSEVKAQ
B6: HA-FABP4 (HEK293) (protein, UniProt P04117 1-132)
chain: B3 chain
B7: HA-Perilipin1 (HEK293) (protein, UniProt Q8CGN5 1-517)
chain: B1 chain
B8: FABP4 (in vitro GST pulldown assay) (protein, UniProt P04117 1-132)
chain: B3 chain

Columns and labels:
[1] = target: T1, USP15 (in vitro GST pulldown assay); test: pull-down; in vitro GST pulldown assay; which protein carried GST is not told
[2] = target: T2, USP15 (endogenous, AML12 cells) (mouse (endogenous in AML12)); test: co-IP; endogenous proteins; AML12 cell lysates immunoprecipitated using IgG and USP15 antibodies, protein A/G agarose beads, Western blot
FLAG-USP15 (HEK293) = target: T3, FLAG-USP15 (HEK293); test: co-IP; HEK293 cells transfected with FLAG-USP15, HA-FABP4 or HA-Perilipin1 plasmids; immunoprecipitated using a FLAG antibody, Western blot

| Binder | binding [2] | further results |
| --- | --- | --- |
| B1 | – | binding [1]: binds |
| B2 | binds | – |
| B3 | binds | – |
| B4 | binds | – |
| B5 | binds | – |
| B6 | – | binding (FLAG-USP15 (HEK293)): binds |
| B7 | – | binding (FLAG-USP15 (HEK293)): binds |
| B8 | – | binding [1]: binds |
